Experimental findings from article doi:10.1101/2024.06.26.599433 are described below.

In the data set the test system is MSI2 (Musashi-2). Briefly: EMSA. The following applies: 0.2 nM RNA, MSI2 titration, 3 mM MgCl2.

For at least one entry, the source does not settle the construct or the ends of the probe.

In the case of “AAACCUGGUAGUGAAACAAU [Prdx4 RNA oligo (mPrdx4-Msi2-BD)]”, the binding result is on record as “binds”.
